From article PMC8978517
No constants are given. Whether binding was seen depends on the method and setting. Binding seen in cells or lysates may run through a third protein. Some entries that bind do so weakly or less than the wild type.

Chains of the proteins cited; added tags and fusions are not shown.
UniProt P26358: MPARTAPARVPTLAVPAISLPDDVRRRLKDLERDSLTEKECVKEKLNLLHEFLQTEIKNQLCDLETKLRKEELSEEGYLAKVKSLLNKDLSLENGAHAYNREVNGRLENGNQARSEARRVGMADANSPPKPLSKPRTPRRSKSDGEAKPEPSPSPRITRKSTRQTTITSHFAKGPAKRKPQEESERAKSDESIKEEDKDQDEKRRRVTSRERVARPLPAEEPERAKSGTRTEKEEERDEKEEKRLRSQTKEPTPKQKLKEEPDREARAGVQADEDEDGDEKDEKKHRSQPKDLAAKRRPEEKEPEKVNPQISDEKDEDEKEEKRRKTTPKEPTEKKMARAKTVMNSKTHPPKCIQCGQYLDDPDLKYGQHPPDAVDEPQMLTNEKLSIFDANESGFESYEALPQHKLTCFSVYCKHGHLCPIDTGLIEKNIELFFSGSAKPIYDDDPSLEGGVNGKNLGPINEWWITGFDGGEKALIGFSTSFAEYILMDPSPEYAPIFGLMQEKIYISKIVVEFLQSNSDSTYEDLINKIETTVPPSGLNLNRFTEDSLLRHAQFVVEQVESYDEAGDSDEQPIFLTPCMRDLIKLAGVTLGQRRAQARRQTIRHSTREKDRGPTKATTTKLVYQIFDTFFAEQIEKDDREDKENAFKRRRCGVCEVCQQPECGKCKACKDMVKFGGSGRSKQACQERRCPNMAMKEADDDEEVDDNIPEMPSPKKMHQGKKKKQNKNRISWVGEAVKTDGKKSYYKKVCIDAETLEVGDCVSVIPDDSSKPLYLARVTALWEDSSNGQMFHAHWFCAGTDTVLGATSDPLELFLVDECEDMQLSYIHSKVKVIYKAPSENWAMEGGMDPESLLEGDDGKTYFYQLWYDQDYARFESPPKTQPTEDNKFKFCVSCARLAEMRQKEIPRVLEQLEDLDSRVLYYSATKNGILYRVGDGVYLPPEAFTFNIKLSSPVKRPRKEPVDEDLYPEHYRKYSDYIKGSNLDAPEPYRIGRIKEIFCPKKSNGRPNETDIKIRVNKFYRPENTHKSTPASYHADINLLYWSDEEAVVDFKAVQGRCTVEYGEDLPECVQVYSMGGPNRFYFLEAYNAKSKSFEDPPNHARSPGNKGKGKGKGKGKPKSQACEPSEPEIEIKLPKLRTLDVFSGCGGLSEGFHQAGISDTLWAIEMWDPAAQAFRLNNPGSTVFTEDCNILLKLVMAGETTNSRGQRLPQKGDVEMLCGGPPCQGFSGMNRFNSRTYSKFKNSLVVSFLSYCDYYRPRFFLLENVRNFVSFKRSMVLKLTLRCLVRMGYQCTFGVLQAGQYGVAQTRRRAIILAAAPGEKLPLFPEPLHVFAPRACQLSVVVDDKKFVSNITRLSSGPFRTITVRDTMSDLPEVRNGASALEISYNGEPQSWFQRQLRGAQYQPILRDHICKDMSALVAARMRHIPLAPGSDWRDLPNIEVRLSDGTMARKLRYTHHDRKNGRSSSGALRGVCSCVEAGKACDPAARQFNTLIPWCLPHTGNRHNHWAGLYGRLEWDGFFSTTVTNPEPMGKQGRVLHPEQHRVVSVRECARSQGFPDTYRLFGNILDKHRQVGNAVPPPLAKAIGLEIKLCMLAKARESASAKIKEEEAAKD
UniProt Q93009: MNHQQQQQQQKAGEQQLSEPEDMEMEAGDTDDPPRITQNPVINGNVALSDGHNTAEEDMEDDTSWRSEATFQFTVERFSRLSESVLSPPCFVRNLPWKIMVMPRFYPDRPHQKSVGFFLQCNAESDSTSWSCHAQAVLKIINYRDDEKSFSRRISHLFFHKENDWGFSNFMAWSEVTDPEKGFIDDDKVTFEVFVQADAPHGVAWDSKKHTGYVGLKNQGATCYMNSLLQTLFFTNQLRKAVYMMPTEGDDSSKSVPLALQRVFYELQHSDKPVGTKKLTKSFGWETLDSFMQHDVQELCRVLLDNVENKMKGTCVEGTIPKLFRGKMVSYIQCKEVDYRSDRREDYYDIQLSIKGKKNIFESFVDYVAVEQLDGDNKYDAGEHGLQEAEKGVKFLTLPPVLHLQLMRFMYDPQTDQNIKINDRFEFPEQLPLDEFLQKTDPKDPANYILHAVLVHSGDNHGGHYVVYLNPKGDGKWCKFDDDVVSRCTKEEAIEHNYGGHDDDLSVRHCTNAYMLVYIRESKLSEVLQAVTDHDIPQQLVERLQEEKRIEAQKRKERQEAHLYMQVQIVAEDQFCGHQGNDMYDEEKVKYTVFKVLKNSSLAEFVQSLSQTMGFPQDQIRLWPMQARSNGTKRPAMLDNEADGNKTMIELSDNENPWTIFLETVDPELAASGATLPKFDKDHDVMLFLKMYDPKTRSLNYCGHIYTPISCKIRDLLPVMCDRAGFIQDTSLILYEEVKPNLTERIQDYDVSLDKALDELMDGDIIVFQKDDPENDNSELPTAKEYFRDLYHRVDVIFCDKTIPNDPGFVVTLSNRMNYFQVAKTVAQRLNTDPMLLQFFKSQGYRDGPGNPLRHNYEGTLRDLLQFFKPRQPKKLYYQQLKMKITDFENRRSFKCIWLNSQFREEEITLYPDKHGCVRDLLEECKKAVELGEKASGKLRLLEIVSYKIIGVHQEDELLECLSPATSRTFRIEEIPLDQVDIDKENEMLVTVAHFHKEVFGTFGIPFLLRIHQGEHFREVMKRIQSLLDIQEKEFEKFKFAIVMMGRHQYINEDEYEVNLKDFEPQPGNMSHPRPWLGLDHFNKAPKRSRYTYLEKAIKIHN
UniProt P09874: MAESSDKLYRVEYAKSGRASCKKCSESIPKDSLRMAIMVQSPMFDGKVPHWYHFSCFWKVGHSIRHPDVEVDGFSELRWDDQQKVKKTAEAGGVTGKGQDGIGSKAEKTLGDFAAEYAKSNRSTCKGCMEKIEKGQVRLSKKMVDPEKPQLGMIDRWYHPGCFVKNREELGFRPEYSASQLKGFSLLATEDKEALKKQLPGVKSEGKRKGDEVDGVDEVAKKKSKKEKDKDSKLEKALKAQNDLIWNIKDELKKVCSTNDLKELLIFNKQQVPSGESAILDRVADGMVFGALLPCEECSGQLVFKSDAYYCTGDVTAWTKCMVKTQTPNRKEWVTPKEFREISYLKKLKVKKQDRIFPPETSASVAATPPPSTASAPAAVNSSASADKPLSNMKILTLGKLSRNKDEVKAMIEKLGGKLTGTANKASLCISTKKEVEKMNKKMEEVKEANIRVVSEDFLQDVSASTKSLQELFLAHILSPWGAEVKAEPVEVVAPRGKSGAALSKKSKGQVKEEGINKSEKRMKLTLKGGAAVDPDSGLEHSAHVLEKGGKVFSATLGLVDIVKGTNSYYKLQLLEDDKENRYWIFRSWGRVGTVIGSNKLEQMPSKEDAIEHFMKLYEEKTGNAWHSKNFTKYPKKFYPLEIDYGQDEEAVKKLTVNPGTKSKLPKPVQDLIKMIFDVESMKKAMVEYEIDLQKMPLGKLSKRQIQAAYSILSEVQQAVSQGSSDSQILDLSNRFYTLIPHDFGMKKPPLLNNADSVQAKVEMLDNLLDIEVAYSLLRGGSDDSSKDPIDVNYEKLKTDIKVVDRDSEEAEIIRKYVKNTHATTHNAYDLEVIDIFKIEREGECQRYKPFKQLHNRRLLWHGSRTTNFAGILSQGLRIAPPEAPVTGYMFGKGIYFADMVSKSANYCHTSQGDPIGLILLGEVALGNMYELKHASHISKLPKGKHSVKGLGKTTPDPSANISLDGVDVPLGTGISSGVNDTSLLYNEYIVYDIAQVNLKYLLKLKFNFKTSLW

Columns and labels:
[1] = molecular target: T1, fructose-1,6-bisphosphatase 1 (FBP1), endogenous (human (endogenous in MIA PaCa-2 and Capan-1)) (UniProt P09467); assay: co-IP; endogenous proteins of MIA PaCa-2 and Capan-1 cells, RIPA lysis; IP with FBP1 and DNMT1 antibodies, or with FBP1 and USP7 antibodies, respectively
T1 sequence: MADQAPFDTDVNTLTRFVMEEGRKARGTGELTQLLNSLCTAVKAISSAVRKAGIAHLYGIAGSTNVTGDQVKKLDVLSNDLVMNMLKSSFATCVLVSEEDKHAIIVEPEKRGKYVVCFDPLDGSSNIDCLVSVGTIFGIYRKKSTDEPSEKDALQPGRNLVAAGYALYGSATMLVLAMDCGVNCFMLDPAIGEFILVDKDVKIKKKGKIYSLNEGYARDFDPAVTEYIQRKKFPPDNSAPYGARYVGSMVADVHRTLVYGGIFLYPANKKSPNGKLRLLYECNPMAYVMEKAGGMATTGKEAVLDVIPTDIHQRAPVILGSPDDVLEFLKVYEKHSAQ

[2] = molecular target: DNA (cytosine-5)-methyltransferase 1 (DNMT1), endogenous (human (endogenous in MIA PaCa-2 and Capan-1)) (UniProt P26358); assay: co-IP; endogenous proteins of Capan-1 cells, IP with DNMT1 antibodies; cells with shFBP1, with overexpressed FBP1 WT, G260R or NES, with USP7 inhibitor (10 uM, 24 h) or with shUSP7

Substance | binding [1] | binding [2]
ubiquitin carboxyl-terminal hydrolase 7 (USP7), endogenous (from UniProt Q93009 1-1102) (enzyme) | binds | 
Poly[ADP-ribose] polymerase 1 (PARP1), endogenous (from UniProt P09874 1-1014) (enzyme) |  | binds
